Data as given in paper PMC7733318.
These are yes or no findings as the source states them, for the method shown. For part of these data: In cells and extracts the contact can be indirect. Some binding calls cover weakened binding; strength is not graded here.

The chains behind the UniProt entries cited, without tags or fusion partners. Residues count along the entry.
UniProt Q15796: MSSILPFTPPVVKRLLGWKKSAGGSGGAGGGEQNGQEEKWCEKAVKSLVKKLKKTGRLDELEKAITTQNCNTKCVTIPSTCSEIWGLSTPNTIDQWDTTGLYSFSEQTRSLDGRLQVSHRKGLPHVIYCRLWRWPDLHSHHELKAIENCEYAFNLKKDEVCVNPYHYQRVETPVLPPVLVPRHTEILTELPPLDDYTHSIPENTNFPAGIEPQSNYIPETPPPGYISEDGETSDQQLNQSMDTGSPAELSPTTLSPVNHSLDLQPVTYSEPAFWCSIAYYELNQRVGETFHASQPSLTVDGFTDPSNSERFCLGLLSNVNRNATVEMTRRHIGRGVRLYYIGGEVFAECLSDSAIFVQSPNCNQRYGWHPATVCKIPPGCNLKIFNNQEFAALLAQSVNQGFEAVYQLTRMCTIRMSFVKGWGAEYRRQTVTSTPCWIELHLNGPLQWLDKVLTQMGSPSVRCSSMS
UniProt P84022: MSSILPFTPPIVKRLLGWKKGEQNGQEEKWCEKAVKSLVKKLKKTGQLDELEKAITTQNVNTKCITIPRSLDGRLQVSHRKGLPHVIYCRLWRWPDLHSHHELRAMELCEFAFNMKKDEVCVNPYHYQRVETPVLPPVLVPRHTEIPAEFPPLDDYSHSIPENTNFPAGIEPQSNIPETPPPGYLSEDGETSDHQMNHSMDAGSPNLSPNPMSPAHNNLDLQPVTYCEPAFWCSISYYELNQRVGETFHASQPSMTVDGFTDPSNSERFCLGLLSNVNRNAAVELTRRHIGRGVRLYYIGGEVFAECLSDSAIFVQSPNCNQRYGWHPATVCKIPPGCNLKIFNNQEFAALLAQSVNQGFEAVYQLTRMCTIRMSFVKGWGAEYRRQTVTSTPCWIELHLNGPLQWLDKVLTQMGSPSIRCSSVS
UniProt Q13485: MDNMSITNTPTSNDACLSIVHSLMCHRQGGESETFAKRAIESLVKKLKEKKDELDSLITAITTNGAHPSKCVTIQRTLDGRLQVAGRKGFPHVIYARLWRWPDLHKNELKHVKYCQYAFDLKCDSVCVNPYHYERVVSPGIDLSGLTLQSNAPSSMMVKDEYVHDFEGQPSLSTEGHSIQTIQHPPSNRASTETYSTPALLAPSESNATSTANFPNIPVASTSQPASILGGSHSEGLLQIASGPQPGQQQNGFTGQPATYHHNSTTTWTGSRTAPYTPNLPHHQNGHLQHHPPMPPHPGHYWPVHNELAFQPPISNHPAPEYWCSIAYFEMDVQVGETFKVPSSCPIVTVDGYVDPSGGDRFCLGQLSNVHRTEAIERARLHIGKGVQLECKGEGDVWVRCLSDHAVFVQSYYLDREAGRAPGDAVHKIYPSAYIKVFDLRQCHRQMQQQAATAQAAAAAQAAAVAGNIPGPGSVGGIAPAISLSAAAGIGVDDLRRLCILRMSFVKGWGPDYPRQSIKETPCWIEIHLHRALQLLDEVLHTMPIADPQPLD
UniProt Q00887, residues 35-426: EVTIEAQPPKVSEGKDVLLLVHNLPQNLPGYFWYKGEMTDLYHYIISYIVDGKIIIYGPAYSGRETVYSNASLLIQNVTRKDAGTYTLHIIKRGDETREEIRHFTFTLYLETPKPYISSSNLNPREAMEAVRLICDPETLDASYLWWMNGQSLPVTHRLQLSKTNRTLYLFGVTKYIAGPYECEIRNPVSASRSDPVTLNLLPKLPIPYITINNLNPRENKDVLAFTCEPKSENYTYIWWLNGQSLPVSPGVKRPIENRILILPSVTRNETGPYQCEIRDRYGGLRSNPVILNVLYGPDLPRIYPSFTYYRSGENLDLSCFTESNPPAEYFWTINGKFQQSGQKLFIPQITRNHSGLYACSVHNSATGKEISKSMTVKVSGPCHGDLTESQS

Legend:
[1] = biological target: GST-Smad2 (UniProt Q15796); experiment: pull-down; GST pull-down with purified GST-Smad2/3/4 and His-PSG9; both purified
[2] = biological target: GST-Smad3 (UniProt P84022); experiment: as above
[3] = biological target: GST-Smad4 (UniProt Q13485); experiment: as above
[4] = biological target: Flag-Smad2 (UniProt Q15796); experiment: co-IP; Flag-Smad2/3/4 and HA-PSG9 cotransfected into HEK293T cells; IP with an anti-Flag antibody, immunoblotting with the indicated antibodies
[5] = biological target: Flag-Smad4 (UniProt Q13485); experiment: as above
[6] = biological target: Flag-Smad3 (UniProt P84022); experiment: as above

Measured: binding

His-PSG9 (from UniProt Q00887 35-426)
binds: [1] | [2] | [3]

HA-PSG9 (pregnancy-specific glycoprotein 9) (from UniProt Q00887 35-426)
binds: [4] | [5] | [6]
